Drawing on paper PMC10618185, this text covers binding for 3 molecules.

Chains of the proteins cited; added tags and fusions are not shown. Lines headed by an entry give the natural chain unless they say otherwise; changes in a name come on top.
UniProt Q9P253: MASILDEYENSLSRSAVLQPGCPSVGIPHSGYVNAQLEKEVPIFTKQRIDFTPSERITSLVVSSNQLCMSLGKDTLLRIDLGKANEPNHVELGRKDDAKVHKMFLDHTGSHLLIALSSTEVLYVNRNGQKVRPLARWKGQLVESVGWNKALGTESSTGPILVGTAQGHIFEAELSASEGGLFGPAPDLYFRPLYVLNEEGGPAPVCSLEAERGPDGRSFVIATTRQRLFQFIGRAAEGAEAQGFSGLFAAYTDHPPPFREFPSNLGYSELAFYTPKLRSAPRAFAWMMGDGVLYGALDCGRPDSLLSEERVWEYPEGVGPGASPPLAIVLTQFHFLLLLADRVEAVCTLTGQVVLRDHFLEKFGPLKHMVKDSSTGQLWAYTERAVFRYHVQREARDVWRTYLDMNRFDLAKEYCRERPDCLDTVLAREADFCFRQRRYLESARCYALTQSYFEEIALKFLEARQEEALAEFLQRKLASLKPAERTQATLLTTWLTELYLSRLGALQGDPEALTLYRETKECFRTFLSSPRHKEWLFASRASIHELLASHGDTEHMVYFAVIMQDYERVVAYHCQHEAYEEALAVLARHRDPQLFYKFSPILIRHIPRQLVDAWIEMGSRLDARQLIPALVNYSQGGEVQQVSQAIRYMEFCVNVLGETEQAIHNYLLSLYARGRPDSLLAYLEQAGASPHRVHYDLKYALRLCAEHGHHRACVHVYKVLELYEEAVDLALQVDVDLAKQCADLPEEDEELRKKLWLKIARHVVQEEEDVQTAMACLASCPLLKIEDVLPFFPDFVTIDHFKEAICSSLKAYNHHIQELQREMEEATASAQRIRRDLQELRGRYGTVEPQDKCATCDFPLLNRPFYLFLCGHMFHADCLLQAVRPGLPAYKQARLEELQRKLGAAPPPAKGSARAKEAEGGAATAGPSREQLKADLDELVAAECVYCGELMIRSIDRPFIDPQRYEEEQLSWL

Assay [1] concerns the target T1, Myc-VPS41 (human (cDNA from HeLa Kyoto cells)) (UniProt P49754).
T1 sequence: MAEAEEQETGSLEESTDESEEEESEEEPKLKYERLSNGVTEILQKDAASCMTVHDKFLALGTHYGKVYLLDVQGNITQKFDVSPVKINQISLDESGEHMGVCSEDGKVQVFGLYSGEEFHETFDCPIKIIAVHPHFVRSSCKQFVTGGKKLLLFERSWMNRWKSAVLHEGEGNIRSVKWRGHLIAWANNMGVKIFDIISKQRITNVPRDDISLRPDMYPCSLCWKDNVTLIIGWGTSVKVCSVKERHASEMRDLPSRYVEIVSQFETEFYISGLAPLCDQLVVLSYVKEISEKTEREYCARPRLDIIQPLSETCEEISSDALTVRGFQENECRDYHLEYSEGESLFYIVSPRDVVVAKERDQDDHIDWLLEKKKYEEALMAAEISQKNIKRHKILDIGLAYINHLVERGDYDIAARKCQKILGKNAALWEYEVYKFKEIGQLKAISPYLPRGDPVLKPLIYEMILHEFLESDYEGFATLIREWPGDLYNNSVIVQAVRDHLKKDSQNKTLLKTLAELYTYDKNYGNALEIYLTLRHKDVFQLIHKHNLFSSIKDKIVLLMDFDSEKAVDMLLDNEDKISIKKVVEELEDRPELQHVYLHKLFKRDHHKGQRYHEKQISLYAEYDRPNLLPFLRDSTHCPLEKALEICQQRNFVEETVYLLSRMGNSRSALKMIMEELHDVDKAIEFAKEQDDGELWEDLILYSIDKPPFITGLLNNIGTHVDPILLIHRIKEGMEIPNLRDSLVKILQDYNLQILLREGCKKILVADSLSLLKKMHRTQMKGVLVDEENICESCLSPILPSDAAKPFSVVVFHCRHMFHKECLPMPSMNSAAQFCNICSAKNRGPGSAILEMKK
Kind of assay: co-IP; HeLa cells stably expressing V5-VPS16, transiently co-transfected with Myc-VPS41 or Myc-VPS8, His-VPS18, FLAG-VPS11 and HA-VPS39 or HA-VPS3; cells homogenised in PBS with protease inhibitors; IP with anti-Myc antibody and Protein G magnetic beads, 4 °C overnight; blots with anti-tag antibodies.

In assay [2] the target is T2, Myc-VPS8 (human (cDNA from HeLa Kyoto cells)) (UniProt Q8N3P4).
T2 sequence: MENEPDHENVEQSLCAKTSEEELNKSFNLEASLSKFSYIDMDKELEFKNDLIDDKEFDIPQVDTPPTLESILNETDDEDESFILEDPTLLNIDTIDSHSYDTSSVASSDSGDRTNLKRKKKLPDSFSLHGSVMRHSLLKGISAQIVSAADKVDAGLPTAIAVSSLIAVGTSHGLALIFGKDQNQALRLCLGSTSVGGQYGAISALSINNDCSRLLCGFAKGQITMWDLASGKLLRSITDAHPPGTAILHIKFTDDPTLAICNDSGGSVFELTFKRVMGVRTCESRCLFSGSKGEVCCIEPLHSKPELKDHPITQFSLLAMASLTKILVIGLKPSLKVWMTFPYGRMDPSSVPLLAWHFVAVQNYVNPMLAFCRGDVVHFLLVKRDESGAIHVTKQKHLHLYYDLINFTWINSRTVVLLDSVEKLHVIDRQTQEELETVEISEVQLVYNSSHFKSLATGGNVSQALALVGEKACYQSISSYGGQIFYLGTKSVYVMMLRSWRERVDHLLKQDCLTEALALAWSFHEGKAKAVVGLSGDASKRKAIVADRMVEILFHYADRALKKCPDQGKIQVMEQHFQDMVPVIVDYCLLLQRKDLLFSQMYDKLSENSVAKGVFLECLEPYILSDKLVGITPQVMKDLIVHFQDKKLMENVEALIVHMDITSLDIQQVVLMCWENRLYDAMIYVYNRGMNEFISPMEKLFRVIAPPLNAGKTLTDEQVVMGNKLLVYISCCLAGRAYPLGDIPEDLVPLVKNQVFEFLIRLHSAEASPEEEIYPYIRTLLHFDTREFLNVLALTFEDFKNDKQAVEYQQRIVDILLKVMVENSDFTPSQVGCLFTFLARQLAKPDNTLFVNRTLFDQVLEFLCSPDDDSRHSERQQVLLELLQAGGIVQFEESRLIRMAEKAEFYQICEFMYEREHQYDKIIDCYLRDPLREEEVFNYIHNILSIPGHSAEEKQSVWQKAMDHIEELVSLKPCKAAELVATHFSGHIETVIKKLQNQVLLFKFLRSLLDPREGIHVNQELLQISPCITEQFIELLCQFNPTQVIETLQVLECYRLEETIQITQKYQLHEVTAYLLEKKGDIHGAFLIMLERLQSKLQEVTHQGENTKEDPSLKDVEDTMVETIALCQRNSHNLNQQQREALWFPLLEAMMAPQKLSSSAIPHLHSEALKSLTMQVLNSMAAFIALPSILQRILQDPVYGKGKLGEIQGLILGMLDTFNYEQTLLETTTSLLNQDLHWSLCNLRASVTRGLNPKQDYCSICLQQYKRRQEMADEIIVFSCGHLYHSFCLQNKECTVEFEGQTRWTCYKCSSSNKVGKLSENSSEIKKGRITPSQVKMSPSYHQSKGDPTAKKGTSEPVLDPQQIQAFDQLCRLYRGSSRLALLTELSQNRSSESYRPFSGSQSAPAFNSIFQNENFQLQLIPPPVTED
The description is as above.

The target of assay [3] is T3, HA-VPS3 (human (cDNA from HeLa Kyoto cells)) (UniProt Q8WUH2).
T3 sequence: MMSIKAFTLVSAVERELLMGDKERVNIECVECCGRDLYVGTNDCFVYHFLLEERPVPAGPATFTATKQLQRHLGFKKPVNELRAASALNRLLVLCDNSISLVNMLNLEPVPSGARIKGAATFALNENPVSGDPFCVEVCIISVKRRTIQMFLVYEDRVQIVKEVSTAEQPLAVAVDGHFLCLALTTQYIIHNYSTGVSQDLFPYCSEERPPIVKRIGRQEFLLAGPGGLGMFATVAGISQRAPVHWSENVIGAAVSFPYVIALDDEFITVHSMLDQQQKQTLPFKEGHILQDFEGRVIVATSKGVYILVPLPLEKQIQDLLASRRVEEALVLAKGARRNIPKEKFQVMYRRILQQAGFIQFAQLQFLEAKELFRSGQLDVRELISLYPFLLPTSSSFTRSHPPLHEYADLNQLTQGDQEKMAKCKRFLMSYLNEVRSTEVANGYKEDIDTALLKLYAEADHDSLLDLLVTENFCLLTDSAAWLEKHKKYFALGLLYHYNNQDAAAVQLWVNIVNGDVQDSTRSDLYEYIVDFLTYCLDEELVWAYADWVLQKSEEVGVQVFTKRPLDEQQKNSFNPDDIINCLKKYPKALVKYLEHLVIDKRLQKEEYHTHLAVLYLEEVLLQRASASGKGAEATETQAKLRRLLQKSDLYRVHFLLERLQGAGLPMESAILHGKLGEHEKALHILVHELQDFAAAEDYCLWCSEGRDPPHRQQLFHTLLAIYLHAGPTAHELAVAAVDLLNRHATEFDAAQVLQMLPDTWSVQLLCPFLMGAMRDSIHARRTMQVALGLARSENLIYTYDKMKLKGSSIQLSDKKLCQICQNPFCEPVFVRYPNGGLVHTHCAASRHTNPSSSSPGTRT
Kind of assay: co-IP; WT HeLa cells with single expression of Myc-VPS41, Myc-VPS8, HA-VPS39 or HA-VPS3; lysate in PBS; IP with anti-Myc or anti-HA antibody and Protein G magnetic beads; endogenous partners detected by western blotting.

No constants are given. Whether binding was seen depends on the method and setting. Binding seen in cells or lysates may run through a third protein. Some entries that bind do so weakly or less than the wild type. Where a sequence is shown, tags or fusion partners need not be part of it.

In the case of “class C core (His-VPS18, FLAG-VPS11, V5-VPS16, VPS33A), exogenously expressed subunits (from UniProt Q9P253 1-973; Q9H270 1-941; Q9H269 1-839; Q96AX1 1-596) (complex)”, the binding result in assay [1] and in assay [2] was “binds” throughout.

B1: endogenous VPS8 (protein, UniProt Q8N3P4 1-1428)
chain: T2 sequence
Regarding B1, the binding entry in assay [3] is given as “binds”.

B2: HA-VPS3 (protein, UniProt Q8WUH2 1-860)
chain: T3 sequence
For B2, the binding entry in assay [2] is “binds”.
